Some of the results follow.
Legend:
Experiment in all cases: log2 fold change, soluble protein after heating vs DMSO (PISA); higher = thermal stabilisation; K562 lysate, 10 uM; active = over 0.2 and 3.5 SD of the protein, either way, in both replicates (recomputed)
[1] = compound: NCC(=O)Nc1ccc(-n2nc(C(F)(F)F)cc2-c2ccc3c(ccc4ccccc43)c2)cc1
How it was run: (§1)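 Following dounce homogenisation of K562 pellets in PBS pH 7.4 with 1 mM MgCl2, crude extract at 1 mg/mL protein was incubated for 30 min with 10 μM compound. Aliquots were then heated for 3 min over 48°C-58°C and pooled, NP-40 was added to 0.5% at 4°C, and soluble protein was recovered as the supernatant at 21,000xg for 90 min. Channel-sum-equalised TMTpro 16plex LC-MS/MS quantified this protein. Each value, from duplicates, is a log-two fold change in thermal stability relative to solvent controls.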

The chains behind the UniProt entries cited, without tags or fusion partners. Where a name states a change or a piece, a line headed by the entry shows the natural chain unless it says otherwise.
UniProt P04424, whole entry, looked up: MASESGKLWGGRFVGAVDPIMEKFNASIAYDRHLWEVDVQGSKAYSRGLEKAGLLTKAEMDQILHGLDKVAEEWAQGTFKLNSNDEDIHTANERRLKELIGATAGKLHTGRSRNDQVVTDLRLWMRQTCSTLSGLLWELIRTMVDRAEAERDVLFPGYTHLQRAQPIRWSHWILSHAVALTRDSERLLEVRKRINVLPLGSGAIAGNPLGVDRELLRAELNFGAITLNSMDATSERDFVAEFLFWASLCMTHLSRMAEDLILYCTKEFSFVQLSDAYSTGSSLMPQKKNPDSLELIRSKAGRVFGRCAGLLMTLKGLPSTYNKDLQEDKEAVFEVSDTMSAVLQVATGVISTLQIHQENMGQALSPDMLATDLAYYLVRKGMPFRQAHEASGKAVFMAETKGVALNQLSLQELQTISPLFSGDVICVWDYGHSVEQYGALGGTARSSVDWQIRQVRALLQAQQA
UniProt Q9Y5K8, whole entry, looked up: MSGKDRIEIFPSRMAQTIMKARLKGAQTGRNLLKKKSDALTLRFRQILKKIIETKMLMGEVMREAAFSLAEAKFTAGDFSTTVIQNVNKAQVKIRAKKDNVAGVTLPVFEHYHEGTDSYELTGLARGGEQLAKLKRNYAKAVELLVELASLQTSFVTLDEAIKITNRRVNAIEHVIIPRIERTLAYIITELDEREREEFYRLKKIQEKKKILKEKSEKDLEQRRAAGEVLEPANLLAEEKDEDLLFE
UniProt O75143: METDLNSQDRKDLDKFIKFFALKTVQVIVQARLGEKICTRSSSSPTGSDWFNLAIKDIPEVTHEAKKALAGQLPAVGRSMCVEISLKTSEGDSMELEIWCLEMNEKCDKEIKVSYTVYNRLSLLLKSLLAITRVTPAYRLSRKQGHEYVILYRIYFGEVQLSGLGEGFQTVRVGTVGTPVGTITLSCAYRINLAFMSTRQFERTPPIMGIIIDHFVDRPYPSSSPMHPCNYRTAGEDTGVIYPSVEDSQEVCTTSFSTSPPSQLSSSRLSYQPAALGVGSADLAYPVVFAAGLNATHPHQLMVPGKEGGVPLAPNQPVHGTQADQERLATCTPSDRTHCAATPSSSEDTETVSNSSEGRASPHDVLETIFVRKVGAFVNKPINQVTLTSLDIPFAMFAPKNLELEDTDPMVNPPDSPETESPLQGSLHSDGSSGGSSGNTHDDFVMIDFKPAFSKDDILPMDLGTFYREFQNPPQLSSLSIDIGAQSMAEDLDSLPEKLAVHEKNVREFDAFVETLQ
UniProt Q9H1I8: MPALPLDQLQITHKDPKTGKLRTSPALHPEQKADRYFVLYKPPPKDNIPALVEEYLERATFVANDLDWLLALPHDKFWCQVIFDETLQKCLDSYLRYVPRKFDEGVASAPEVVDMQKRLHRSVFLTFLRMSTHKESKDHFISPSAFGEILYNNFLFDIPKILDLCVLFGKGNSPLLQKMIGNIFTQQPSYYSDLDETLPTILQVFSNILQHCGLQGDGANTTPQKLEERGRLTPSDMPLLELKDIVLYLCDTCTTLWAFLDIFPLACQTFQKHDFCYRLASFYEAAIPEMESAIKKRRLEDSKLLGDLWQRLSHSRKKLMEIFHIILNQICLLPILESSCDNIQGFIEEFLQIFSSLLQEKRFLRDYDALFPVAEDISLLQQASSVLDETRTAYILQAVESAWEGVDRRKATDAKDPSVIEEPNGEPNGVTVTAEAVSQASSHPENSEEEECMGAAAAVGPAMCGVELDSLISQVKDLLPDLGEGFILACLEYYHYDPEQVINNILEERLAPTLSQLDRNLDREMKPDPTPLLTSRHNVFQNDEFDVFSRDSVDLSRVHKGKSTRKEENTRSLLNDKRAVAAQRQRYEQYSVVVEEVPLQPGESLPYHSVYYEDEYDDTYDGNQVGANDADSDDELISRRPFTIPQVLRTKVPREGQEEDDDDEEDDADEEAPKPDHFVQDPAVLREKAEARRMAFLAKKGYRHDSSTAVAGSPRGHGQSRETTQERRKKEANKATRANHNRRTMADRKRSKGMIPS
UniProt P21283, whole entry, looked up: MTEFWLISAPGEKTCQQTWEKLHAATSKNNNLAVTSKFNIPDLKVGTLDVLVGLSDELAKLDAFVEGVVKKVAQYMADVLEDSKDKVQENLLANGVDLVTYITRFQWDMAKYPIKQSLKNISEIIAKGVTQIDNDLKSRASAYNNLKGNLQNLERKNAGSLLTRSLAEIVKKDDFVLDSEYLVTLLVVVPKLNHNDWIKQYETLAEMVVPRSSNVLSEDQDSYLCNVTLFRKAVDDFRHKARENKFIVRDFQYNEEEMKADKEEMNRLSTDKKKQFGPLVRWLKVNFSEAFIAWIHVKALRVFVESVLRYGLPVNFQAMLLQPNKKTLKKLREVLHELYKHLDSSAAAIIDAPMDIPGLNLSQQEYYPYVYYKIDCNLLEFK
UniProt Q12797: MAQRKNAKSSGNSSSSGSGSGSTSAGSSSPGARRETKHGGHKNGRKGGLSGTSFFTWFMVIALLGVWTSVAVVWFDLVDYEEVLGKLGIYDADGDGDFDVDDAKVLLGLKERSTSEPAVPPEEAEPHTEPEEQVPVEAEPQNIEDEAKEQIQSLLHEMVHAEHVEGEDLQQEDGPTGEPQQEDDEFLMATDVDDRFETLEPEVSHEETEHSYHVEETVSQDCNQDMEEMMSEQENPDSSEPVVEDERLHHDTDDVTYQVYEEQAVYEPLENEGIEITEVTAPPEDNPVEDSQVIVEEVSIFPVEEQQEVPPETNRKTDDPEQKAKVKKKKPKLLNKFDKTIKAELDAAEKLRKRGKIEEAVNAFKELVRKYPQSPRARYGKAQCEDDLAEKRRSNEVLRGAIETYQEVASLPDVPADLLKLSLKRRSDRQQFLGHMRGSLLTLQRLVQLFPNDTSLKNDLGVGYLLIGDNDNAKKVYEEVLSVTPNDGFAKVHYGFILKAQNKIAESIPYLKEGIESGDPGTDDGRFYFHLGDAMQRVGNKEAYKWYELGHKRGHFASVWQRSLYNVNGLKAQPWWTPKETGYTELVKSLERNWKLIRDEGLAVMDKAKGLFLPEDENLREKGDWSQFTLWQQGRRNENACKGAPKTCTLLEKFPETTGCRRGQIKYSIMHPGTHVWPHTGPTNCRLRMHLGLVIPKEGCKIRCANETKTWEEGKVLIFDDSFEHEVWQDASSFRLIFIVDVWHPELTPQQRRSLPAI
UniProt Q96GD4, whole entry, looked up: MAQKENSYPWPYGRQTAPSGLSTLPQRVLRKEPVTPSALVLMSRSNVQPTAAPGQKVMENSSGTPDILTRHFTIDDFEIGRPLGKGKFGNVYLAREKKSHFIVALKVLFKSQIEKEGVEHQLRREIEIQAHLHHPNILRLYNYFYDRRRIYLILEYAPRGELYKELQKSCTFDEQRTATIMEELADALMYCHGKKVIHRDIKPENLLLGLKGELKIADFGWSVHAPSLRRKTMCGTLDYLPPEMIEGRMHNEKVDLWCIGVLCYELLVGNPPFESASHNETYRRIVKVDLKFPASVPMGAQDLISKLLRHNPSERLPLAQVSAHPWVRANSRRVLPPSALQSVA
UniProt Q9Y2G3: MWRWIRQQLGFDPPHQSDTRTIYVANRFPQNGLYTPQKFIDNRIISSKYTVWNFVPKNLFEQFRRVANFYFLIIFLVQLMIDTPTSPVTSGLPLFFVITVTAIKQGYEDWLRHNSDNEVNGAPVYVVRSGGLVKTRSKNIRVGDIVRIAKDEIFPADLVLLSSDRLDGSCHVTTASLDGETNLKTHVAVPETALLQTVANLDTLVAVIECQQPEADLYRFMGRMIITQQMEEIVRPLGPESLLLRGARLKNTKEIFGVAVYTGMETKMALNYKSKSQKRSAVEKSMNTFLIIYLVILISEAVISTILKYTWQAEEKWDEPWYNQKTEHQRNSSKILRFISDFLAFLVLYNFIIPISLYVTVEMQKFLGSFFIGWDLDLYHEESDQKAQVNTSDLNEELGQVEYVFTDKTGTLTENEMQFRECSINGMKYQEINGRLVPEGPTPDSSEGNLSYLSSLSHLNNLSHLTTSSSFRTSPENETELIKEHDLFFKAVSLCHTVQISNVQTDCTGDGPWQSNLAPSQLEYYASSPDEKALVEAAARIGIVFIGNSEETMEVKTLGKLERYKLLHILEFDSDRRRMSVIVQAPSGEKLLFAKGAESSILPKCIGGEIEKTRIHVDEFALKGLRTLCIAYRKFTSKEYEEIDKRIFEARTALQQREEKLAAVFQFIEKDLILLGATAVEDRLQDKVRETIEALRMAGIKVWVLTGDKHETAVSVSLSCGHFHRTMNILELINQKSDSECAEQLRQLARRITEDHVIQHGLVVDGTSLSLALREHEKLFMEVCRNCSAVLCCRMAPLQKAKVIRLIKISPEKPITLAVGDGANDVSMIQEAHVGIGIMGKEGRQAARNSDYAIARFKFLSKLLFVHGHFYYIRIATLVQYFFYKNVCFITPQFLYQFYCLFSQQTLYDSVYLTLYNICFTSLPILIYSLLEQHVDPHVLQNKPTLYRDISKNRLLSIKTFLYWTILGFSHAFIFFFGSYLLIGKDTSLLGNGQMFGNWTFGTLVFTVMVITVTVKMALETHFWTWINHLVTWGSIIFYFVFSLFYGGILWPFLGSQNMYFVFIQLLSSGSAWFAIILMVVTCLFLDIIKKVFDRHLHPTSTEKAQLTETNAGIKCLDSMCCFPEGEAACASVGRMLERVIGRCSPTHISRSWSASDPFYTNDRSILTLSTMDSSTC

[2] = compound: O=C(CCCCCCC(=O)Nc1ccccc1)NO [vorinostat]
How it was run: as §1

[3] = compound: O=C(O)c1ccc2c(c1)nc(Nc1cccc(Cl)c1)c1ccncc12 [silmitasertib]
How it was run: as §1

[4] = compound: O=C1NC(=O)C(c2cnc3ccccn23)=C1c1cn2c3c(cc(F)cc13)CN(C(=O)N1CCCCC1)CC2
How it was run: as §1

[5] = compound: c1cn2cc(-c3ccc4cn[nH]c4c3)nc(Nc3ccc(N4CCOCC4)cc3)c2n1 [entospletinib]
How it was run: as §1

Measured: log2 fold change

ASL (UniProt P04424)
inactive: [1] 0.017 | [2] 0.065 | [3] -0.006 | [4] -0.012 | [5] 0.001

ATP6V1D (UniProt Q9Y5K8)
inactive: [1] -0.042 | [2] 0.125 | [3] -0.002 | [4] 0.009 | [5] 0.01

ATM (UniProt Q13315)
inactive: [1] 0.058 | [2] -0.093 | [3] 0.118 | [4] -0.033 | [5] 0.036

ATG13 isoform 2 (UniProt O75143)
inactive: [1] 0.01 | [2] 0.051 | [3] -0.01 | [4] 0.024 | [5] -0.008

ASCC2 (UniProt Q9H1I8)
inactive: [1] -0.008 | [2] -0.048 | [3] 0.077 | [4] 0.026 | [5] -0.017

ATP6V1C1 (UniProt P21283)
inactive: [1] -0.025 | [2] 0.01 | [3] 0.006 | [4] -0.032 | [5] 0.019

ASPH (UniProt Q12797)
inactive: [1] 0 | [2] 0.131 | [3] -0.008 | [4] 0.029 | [5] -0.016

Random excerpt: two entries already listed.
ATG13 isoform 2 (UniProt O75143)
inactive: [1] 0.01 | [2] 0.051 | [3] -0.01 | [4] 0.024 | [5] -0.008

ATP6V1C1 (UniProt P21283)
inactive: [1] -0.025 | [2] 0.01 | [3] 0.006 | [4] -0.032 | [5] 0.019

Remaining list, next part:

AURKB isoform 5 (UniProt Q96GD4)
inactive: [1] -0.035 | [2] -0.061 | [3] -0.082 | [4] 0.03 | [5] -0.218

ATP11B (UniProt Q9Y2G3)
inactive: [1] 0.027 | [2] 0.092 | [3] -0.006 | [4] -0.01 | [5] 0.008

— the supplement of paper PMC10849652
